What is called AC50 is the midpoint of the concentration-response curve, whichever way the signal moves. A higher AC50 goes with activity only at high concentration.

The list shows a part of the results. These are further read-outs of the screen, such as a control signal, another cell line or another target. No call is given for them. Most of these compounds were active or inconclusive in the main read-out, so they are no random draw. Potencies come from curve fits of mixed quality, noted in brackets.

The text below walks through data of PubChem BioAssay AID2685 (National Center for Advancing Translational Sciences (NCATS), 2010).

A short description of this assay: qHTS Assay for Lipid Storage Modulators in Drosophila S3 Cells.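 For cell number change: cells counted by Cell Tracker Red CMTPX staining in the red channel.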 As to conditions: BODIPY lipid droplet fluorescence, 18-24 h; for cell number change: measured here: cell count max response, cells fed with added oleic acid. The method, boiled down: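 Drosophila S3 cells loaded with oleic acid (400 uM, as added) and compounds at several concentrations; lipid droplets imaged by 488-nm laser-scanning cytometry, 500–530 nm intensity and object ratio to cell channel. Percent activity normalized to 20 uM Triacsin C.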
A general note: In qHTS, concentration-response curves come from the screen itself.

Where [1] appears, read: measured here: lipid fluorescence (Fed channel) AC50, cells fed with added oleic acid.
[2] abbreviates: measured here: cell number channel AC50, cells fed with added oleic acid.

Take `NC(N)=N/N=C/c1ccc2cccc(OCc3ccccc3)c2n1`: the cell number change is -53%.
Take `COCCNC(=O)C(c1ccc(C)cc1)N(C(=O)CCC(=O)Nc1ccccn1)C1CCCCC1` (configuration not stated): the cell number change came out at 2.56%. In addition, the concentration at half-maximal activity (AC50) under setting [1] was 0.00461 µM [rising, full curve, poor fit].
Turning to `CC(C)(C)OC(=O)C(C)(C)Sc1nnc(N)s1`, the cell number change was determined as 9.73%. Also, the AC50 under setting [2] was 0.164 µM [falling, full curve, poor fit].
Turning to `CCOC(=O)C1CCN(C(=O)Cn2nc(C)c3c(C)n(-c4ccccc4)nc3c2=O)CC1`, the cell number change was 9.25%. Further, the AC50 under setting [1] is 25.9 µM [rising, single point].
In the case of `COc1ccc(-c2csc(NC(=O)c3ccccc3NS(=O)(=O)c3ccc(F)c(F)c3)n2)cc1`, the cell number change was -10.5%.
`COc1c(C)cccc1C(=O)NCCCNC(=O)c1ccc(C)nc1`: the cell number change was 1.32%.
With `C[C@H](NC(=O)[C@H](Cc1ccccc1)NC(=O)c1cc2cc(Cl)ccc2n1C)C(=O)O`, the cell number change is -32.9%. Besides, the concentration at half-maximal activity (AC50) under setting [2] was 0.366 µM [falling, full curve].
With `CCOC(=O)c1cc(NC(=O)N2CCOCC2)c(C)nc1C`, the concentration at half-maximal activity (AC50) under setting [1] is 3.26 µM [rising, partial curve].
Turning to `CCCCCn1c(=O)[nH]c2cc(C(=O)N3CCN(C(=O)OCC)CC3)ccc2c1=O`, the AC50 under setting [1] is 3.26 µM [falling, full curve].
Turning to `O=C(Nc1ccc(F)cc1)N1CCN(c2ccc3nnc(-c4ccc(F)cc4)n3n2)CC1`, the cell number change was -6.08%. Also, the AC50 under setting [1] is 18.4 µM [falling, single point].
`CN(CC(=O)Nc1ccc(F)c(F)c1F)c1cnccn1`: the cell number change turned out to be 1.3%. Further, the half-maximal activity concentration (AC50) under setting [1] is 7.31 µM [falling, full curve, poor fit].
In the case of `Cc1sc(N2C(=O)C3C(C2=O)[C@H]2C=C[C@@H]3C2)c(C#N)c1C` (some centres not stated), the cell number change came to 23.2%. Moreover, the half-maximal activity concentration (AC50) under setting [1] was 6.51 µM [falling, single point].
With `CS(=O)(=O)N(CC(=O)NCc1ccccc1Cl)C1CCCCC1`, the cell number change is -40.9%. The AC50 under setting [2] was 11.6 µM [falling, partial curve]. Further, the AC50 under setting [1] is 10.3 µM [falling, partial curve].
For `O=C(NC1CCCCCC1)c1ccc(-n2cnnc2)cc1`, the cell number change was -33.1%. Further, the AC50 under setting [2] was 7.94 µM [falling, partial curve]. Also, the AC50 under setting [1] is 10 µM [falling, partial curve].
With `CC(C)CCN(C(=O)c1ccncc1)c1c(N)n(Cc2ccccc2)c(=O)[nH]c1=O`, the cell number change came to 19.2%. Under setting [1], the AC50 was 3.26 µM [falling, single point].
In the case of `Cc1onc(-c2c(Cl)cccc2Cl)c1NC(=O)NNc1ccccc1`, the cell number change is -37.7%. Also, the AC50 under setting [2] is 16.4 µM [falling, single point]. The half-maximal activity concentration (AC50) under setting [1] was 29.1 µM [falling, single point].
As for `CCOc1ccc(C(=O)Nc2ccc(N3CCN(C)CC3)cc2)cc1Br`, the cell number change came to 0.225%. Under setting [1], the half-maximal activity concentration (AC50) is 6.51 µM [rising, single point].
